From the supplement of paper PMC11006884
The list shows a part of the results, in another mix than the full data.

Compound: COC(=O)C#Cc1ccccc1 [methyl 3-phenylpropiolate]
Assay: log2 ratio of iodoacetamide-alkyne labeling of the cysteine site, DMSO over compound (competition); higher = stronger covalent engagement of the cysteine by the compound, active = 1 or more
Conditions: 500 µM; treatment time 1 h; system: HEK293T cell lysate
Method in brief: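 Three replicates, each with duplicate channels, were prepared from HEK293T lysate (2 mg/mL) treated with vehicle or electrophile at 500 µM for 1 h at ambient temperature. Iodoacetamide alkyne was then applied for 1 h, and samples were clicked to sCIP-TMT reagents, pooled, trypsin-digested overnight at 37 °C, enriched on streptavidin, acid-eluted and analysed on Orbitrap Eclipse LC-MS/MS with FAIMS, with FragPipe quantification. The log2 competition ratio per cysteine is the mean control-channel divided by the mean compound-channel reporter intensity. Cysteines quantified in only one replicate were left out.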

Target	log2 ratio of iodoacetamide-alkyne labeling
AKAP13 C1414 (UniProt Q12802)	inactive: 0.566
PRDX1 C71 (UniProt Q06830)	inactive: 0.39
GTF3C1 C42 (UniProt Q12789)	inactive: 0.436
EIF4G1 C819 (UniProt Q04637)	inactive: 0.142
PPIG C10 (UniProt Q13427)	inactive: 0.0648
SCRN1 C324 (UniProt Q12765)	inactive: 0.0183
UBE2V1 C144 (UniProt Q13404)	inactive: 0.136
TP53BP1 C1703 (UniProt Q12888)	inactive: 0.474
DHX9 C1029 (UniProt Q08211)	inactive: 0.81
AHNAK C1833 (UniProt Q09666)	inactive: 0.311
EIF4G1 C821 (UniProt Q04637)	inactive: 0.105
GTF3C1 C431 (UniProt Q12789)	inactive: 0.123
ACACA C1297 (UniProt Q13085)	inactive: 0.156
TJP1 C1740 (UniProt Q07157)	inactive: 0.525
TP53BP1 C1178 (UniProt Q12888)	inactive: 0.529
UniProt Q05655_C127	inactive: 0.196
PPIG C310 (UniProt Q13427)	inactive: 0.195
MCL1 C16 (UniProt Q07820)	inactive: 0.348
NCBP1 C261 (UniProt Q09161)	inactive: 0.0607
UniProt Q05519_C455	inactive: 0.238
DHX9 C469 (UniProt Q08211)	inactive: 0.355
UniProt Q09028_C167	inactive: 0.199

2 entries drawn at random from those above, as already listed:
Target	log2 ratio of iodoacetamide-alkyne labeling
PPIG C310 (UniProt Q13427)	inactive: 0.195
TP53BP1 C1703 (UniProt Q12888)	inactive: 0.474
